{"sequences": {"note": "Protein sequences, listed by entry. Tags and fused reporters are not part of them. Lines headed by an entry give the natural chain unless they say otherwise; changes in a name come on top.", "UniProt P46063": "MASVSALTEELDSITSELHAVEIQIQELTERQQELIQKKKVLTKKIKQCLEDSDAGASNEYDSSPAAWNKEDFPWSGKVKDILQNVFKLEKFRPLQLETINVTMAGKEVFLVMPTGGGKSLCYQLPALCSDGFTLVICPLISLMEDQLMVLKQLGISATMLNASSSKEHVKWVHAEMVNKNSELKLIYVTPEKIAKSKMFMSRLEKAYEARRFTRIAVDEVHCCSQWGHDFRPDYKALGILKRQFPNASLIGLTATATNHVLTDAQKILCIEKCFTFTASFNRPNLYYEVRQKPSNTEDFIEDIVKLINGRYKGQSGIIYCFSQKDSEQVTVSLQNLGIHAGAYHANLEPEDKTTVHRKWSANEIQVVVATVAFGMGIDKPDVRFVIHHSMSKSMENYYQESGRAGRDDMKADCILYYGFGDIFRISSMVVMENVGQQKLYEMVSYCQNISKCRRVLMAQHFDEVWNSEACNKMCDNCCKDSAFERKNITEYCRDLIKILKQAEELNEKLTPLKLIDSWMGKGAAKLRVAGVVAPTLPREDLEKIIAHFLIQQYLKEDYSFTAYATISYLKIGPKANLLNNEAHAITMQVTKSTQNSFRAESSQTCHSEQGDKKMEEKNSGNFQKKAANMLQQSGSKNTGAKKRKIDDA"}, "source": "PubChem BioAssay AID2549", "about": "(National Center for Advancing Translational Sciences (NCATS), 2010)", "note": "The whole screen tested about 240,000 compounds, of which about 1,300 (0.54%) were called active. Inconclusive results, whose numbers are uncertain, are shown with a selection of clear calls. The call rests on the fitted dose curve; in most records, active means well fitted inhibition curve with a large enough effect; inconclusive means small, poorly fitted or top-dose-only effect; inactive means flat fitted curve, though single readings scatter. A potency beside an inconclusive call is a rough fit, not a confirmed value. The source holds several records for some structures; these can differ, active in one and inactive in another. Potency means the concentration at half of the fitted maximal effect."}
{"molecular_target": "ATP-dependent DNA helicase Q1 (Homo sapiens) (UniProt P46063)", "test": "qHTS Assay for Inhibitors of RecQ-Like Dna Helicase 1 (RECQ1); further: nearly all actives have a fitted effect of over 30% in size;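 on activity, negative = inhibition: plate controls were vehicle for no effect and no enzyme for full effect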", "conditions": "RECQ1 DNA unwinding, red fluorescence kinetic read; activity, negative = inhibition: at 57.3 µM (top of the series); series mostly up to 57.3 µM", "excerpt": "Survival of cells and the faithful propagation of the genome depend on elaborate mechanisms of detecting and repairing DNA damage. Treatment of advanced cancer relies on radiation therapy or chemotherapy, which kill cancer cells by causing extensive DNA damage. It is often found, that cancer cells develop resistance to therapy through enhanced activity of DNA repair functions; this has led to an increased interest in developing drugs that interfere with DNA repair, which could sensitize cancer cells to conventional therapy.\nThis validation qHTS assay pertains to human RECQ1, which is important in resolving abnormal DNA structures formed during replication or homologous recombination. Shutting down the expression of RECQ1 leads to chromosomal instability and higher radiation sensitivity in cultured cells.\nThe validation assay was a fluorescence quenching based kinetic qHTS for RECQ1 Helicase DNA unwinding. The activity was measured as ATP-dependent separation of a 20-bp DNA duplex extended by 30-nt single-stranded tails (forked duplex). The forked DNA substrate was tagged with rhodamine fluorophore (carboxytetramethyl rhodamine, TAMRA) and BHQ-2 (Black Hole Quencher 2) dark quencher. Strand separation results in an increase in the fluorescence of TAMRA (excitation 525 nm, emission 598 nm). This substrate construct operates in a red-shifted region where very few compound library members have been noted to fluoresce (PubChem AIDs 593 and 594). An additional feature of the assay is the inclusion of 2.5 ug/ml poly (dIdC), to reduce interference by compounds such as DNA intercalators, a major source of false inhibitors.\nOpher Gileadi, Structural Genomics Consortium, University of Oxford\nScreening Center PI: Austin, C.P.\nScreening Center: NIH Chemical Genomics Center [NCGC]\nThree uL of reaction buffer (25 mM Tris-HCl (pH 8.0), 5 mM NaCl, 2 mM MgCl2, 1mM DTT, 0.01% Tween- 20, and 2.5 ug/ml poly(dI-dC), including enzyme (50 nM RECQ1T1), were dispensed into a 1536-well Greiner black assay plate via solenoid-valve based nanoliter dispensers. Compounds (23 nl each in columns 5-48) and control (23 nl each in column 2 as dose-response) were transferred via a Kalypsys pintool equipped with a 1536-pin array. The plates were incubated for 15 min at room temperature, and then 1 ul of substrates (200 nM DNA and 2 mM ATP, final concentrations) was added to start the reaction. The plate was transferred into a ViewLux high-throughput CCD imager where the reaction progress was measured in a discontinuous kinetic mode (two reads spaced 2 hours apart, with intermediate room temperature incubation of the covered assay plate) by using standard red-fluorescence optics (excitation filter 525 nm, emission filter 598 nm). Enzyme-free and vehicle (DMSO) controls were included for signal normalization."}
{"smiles": "Oc1c(C=Nc2cccc3nsnc23)ccc2ccccc12", "Potency": "inconclusive: 22.4 µM [inhibitor, single point]"}
{"smiles": "Cc1nsc(Nc2ccccc2)c1C#N", "Potency": "inconclusive: 0.562 µM [inhibitor, partial curve, poor fit]"}
{"smiles": "Cc1ccc(NC(=O)CSc2nc(NS(=O)(=O)c3ccc(C)cc3)cc(=O)[nH]2)cc1", "Potency": "inconclusive: 35.5 µM [inhibitor, single point]"}
{"smiles": "Cc1sc(NC(=O)c2ccco2)c(C(c2cccnc2)N2CCN(CCO)CC2)c1C", "note": "(centres undefined)", "outcome": "inactive"}
{"smiles": "Cc1ccccc1C1CC(=O)Oc2ccc(C(C)(C)C)cc21", "note": "(centres undefined)", "activity, negative = inhibition": "inactive: -5.89% [at 81.1 µM]"}
{"smiles": "CC(=O)OC1C=C[C@]2(C)C(CC(OC(C)=O)[C@@]3(C)C4=CC(=O)OC(c5ccoc5)[C@]4(C)CCC23)C1(C)C", "note": "(some centres undefined)", "outcome": "inactive"}
{"smiles": "CCn1c(SCC(=O)c2ccc(O)c(O)c2)nnc1-c1ccccc1OC", "Potency": "active: 14.1 µM"}
{"smiles": "CCC(CNc1cc(OC)cc2cccnc12)NC1CCCCC1", "note": "(centres undefined)", "Potency": "inconclusive: 25.1 µM [inhibitor, single point]"}
{"smiles": "Cc1cc2c(NC(=O)Nc3ccccc3)cccc2nn1", "Potency": "inconclusive: 25.1 µM [inhibitor, single point]"}
{"smiles": "C/C(CCN1CCCCc2nc(C)c(C)cc21)=N\\OC[C@@H](O)COCc1ccco1", "activity, negative = inhibition": "inactive: 8.77% [at 11.5 µM]"}
{"smiles": "Nc1nc2c(ncn2[C@@H]2O[C@H](CO)[C@@H](O)[C@H]2O)c(=O)[nH]1", "Potency": "inconclusive: 3.98 µM [inhibitor, partial curve, poor fit]"}
{"smiles": "C=C(C)C(=O)NC1=NN(c2ccccc2)C(=O)C1", "Potency": "inconclusive: 31.6 µM [inhibitor, single point]"}
{"smiles": "CCCCCCCOC1(c2ccccc2)OC(=O)c2ccccc21", "note": "(centres undefined)", "activity, negative = inhibition": "inactive: -6.92%"}
{"smiles": "Cc1ccc(F)cc1-c1ccc(C(=O)N=C(N)N)o1", "activity, negative = inhibition": "inactive: -3.24%"}
{"smiles": "O=C(O)c1ccc(N/N=C/C2=C(N3CCOCC3)C(=C\\c3ccccc3)/CC2)cc1", "Potency": "inconclusive: 35.5 µM [inhibitor, single point]"}
{"smiles": "Cc1ccc(C2C(/C=C3/SC(=S)NC3=O)=C(c3cccs3)Oc3ccccc32)cc1", "note": "(centres undefined)", "Potency": "inconclusive: 35.5 µM [inhibitor, single point]"}
{"smiles": "O=C1c2ccccc2C(=O)N1/N=C/c1ccc(O)c(O)c1", "activity, negative = inhibition": "inactive: -28.3%"}
{"smiles": "COc1ccc(C(C)(C)C)cc1NC(=O)CCCn1c(=O)oc2ccccc21", "activity, negative = inhibition": "inactive: -2.65%"}
{"smiles": "O=C(/C=C/c1ccc(Cl)cc1)N(Cc1cccs1)C1CCS(=O)(=O)C1", "note": "(centres undefined)", "outcome": "inactive"}
{"smiles": "COC(=O)Cn1c(=NC(=O)C2COc3ccccc3O2)sc2cc(S(N)(=O)=O)ccc21", "note": "(centres undefined)", "Potency": "inconclusive: 0.0891 µM [inhibitor, full curve, poor fit]"}
{"smiles": "C=C(NC(=O)C(=C)NC(=O)c1csc(C2=N[C@@H]3c4csc(n4)[C@@H]4NC(=O)c5csc(n5)[C@@H]([C@](C)(O)[C@H](C)O)NC(=O)[C@@H]5CSC(=N5)/C(=C/C)NC(=O)[C@@H]([C@H](C)O)NC(=O)c5csc(n5)[C@]3(CC2)NC(=O)[C@@H](C)NC(=O)C(=C)NC(=O)[C@@H](C)NC(=O)[C@@H]([C@@H](C)CC)N[C@H]2C=Cc3c([C@H](C)O)cc(nc3[C@@H]2O)C(=O)O[C@H]4C)n1)C(N)=O", "outcome": "inactive [at 25.9 µM]"}
{"smiles": "CC1(C)CC(=O)c2c(oc3cc(O)c(O)cc23)C1", "Potency": "active: 20 µM"}
{"smiles": "O=C1CCCC(O)=C1N=Nc1c(Cl)cc(Cl)cc1Cl", "Potency": "active: 25.1 µM"}
{"smiles": "COc1ccc(CCn2nnnc2C(c2ccc(Cl)cc2)N2CCN(C)CC2)cc1OC", "note": "(centres undefined)", "Potency": "inconclusive: 6.31 µM [inhibitor, single point]"}
{"smiles": "O=C(CSc1nnc(SCC(=O)c2ccco2)s1)c1ccco1", "Potency": "inconclusive: 15.8 µM [inhibitor, partial curve]"}
{"smiles": "COc1ccc(C)cc1NC(=S)N1CCN(c2ccccn2)CC1", "activity, negative = inhibition": "inactive: -7.51%"}
{"smiles": "N#C/C(=N\\Nc1cccc([N+](=O)[O-])c1)C(=O)c1ccc(Br)cc1", "Potency": "inconclusive: 35.5 µM [inhibitor, single point]"}
{"smiles": "CCCCCCCCc1ccc(-c2ccc(C(=O)O)cc2)cc1", "Potency": "inactive"}
{"smiles": "Cc1ccc(N=C2NC(=O)S/C2=C\\c2ccco2)cc1", "activity, negative = inhibition": "inactive: -8.48%"}
{"smiles": "COc1ccccc1NC(=S)NNC(=O)c1nn(C)c(C)c1Cl", "Potency": "inconclusive: 0.355 µM [inhibitor, partial curve, poor fit]"}
{"smiles": "COCC(=O)N(Cc1nc2ccccc2c(=O)[nH]1)Cc1cccs1", "activity, negative = inhibition": "inactive: -1.62%"}
{"smiles": "CCc1cc2c(=O)c(-c3ccc4c(c3)OCCO4)coc2c(CN2CCCCC2C)c1O", "note": "(centres undefined)", "Potency": "inconclusive: 35.5 µM [inhibitor, single point]"}
{"smiles": "O=C(Nc1ccc(N2CCN(C(=O)c3ccc(Cl)cc3)CC2)cc1)c1cc2ccccc2o1", "Potency": "inconclusive: 3.55 µM [inhibitor, partial curve]"}
{"smiles": "COC(=O)C(C(C)=O)C(NC(=O)OC(C)(C)C)c1ccccc1", "note": "(centres undefined)", "activity, negative = inhibition": "inactive: 6.08%"}
{"smiles": "Cc1cccc(NC(=O)c2ccccc2[N+](=O)[O-])n1", "activity, negative = inhibition": "inactive: -16%"}
{"smiles": "CC1(C)Cc2c(C#N)c(N)n(-c3ccccc3)c(=S)c2CO1", "activity, negative = inhibition": "inactive: -2.92%"}
{"smiles": "COc1ccc(OC)c(NC(=O)COC(=O)c2cc3c(s2)CCC3)c1", "Potency": "inconclusive: 3.16 µM [inhibitor, partial curve]"}
{"smiles": "C[N+]1=C(/C=C/Nc2ccccc2Cl)C(C)(C)c2ccccc21", "Potency": "inconclusive: 35.5 µM [inhibitor, single point]"}
{"smiles": "C[C@H](NC(=O)c1nc[nH]c1C(=O)NCc1ccc(CNC(=O)OC(C)(C)C)cc1)C(=O)OC(C)(C)C", "Potency": "inconclusive: 22.4 µM [inhibitor, partial curve]"}
{"smiles": "Cc1cc(O)c(C(=O)/C=C/c2cccc([N+](=O)[O-])c2)c(=O)o1", "Potency": "inconclusive: 39.8 µM [inhibitor, single point]"}
{"smiles": "CC(C)c1ccc(OCC(=O)NNC(=O)c2cnccn2)cc1", "Potency": "inconclusive: 3.98 µM [inhibitor, partial curve, poor fit]"}
{"smiles": "CC(=O)NC1=NN(C(C)=O)C(C)(c2ccccc2)S1", "note": "(centres undefined)", "Potency": "active: 39.8 µM"}
{"smiles": "O=C(Nc1ccc(F)cc1)c1ccc(CSc2ccccc2)o1", "Potency": "inconclusive: 25.1 µM [inhibitor, partial curve]"}
{"smiles": "O=c1c(-c2c(O)cc(O)c3c(=O)cc(-c4ccc(O)cc4)oc23)c(-c2ccc(O)cc2)oc2cc(O)cc(O)c12", "Potency": "active: 12.6 µM"}
